According to patent US20140227280A1 (CENTRE NATIONAL DE LA RECHERCHE SCIENTIFIQUE, published 2014):
These are yes or no findings as the source states them, for the method shown. Binding seen in cells or lysates may run through a third protein. Some results given as binding are weak or reduced against the parent protein; the word gives no strength.

Legend:
[1] = biological target: mouse MCM9 protein (mouse); assay: co-immunoprecipitation (summary in the example's discussion)
[2] = biological target: mouse MCM9 protein (mouse); assay: co-immunoprecipitation (summary in the example's introduction)
[3] = biological target: mouse MCM9 protein (mouse); assay: co-immunoprecipitation from mouse testes extracts (legend of FIGS. 18A-C)
[4] = biological target: mouse MCM9 protein (mouse); assay: reciprocal co-immunoprecipitation from mouse testes extracts, western blot

Measured: binding

B1: mouse MCM8 protein (other)
chain: MSGAYRGRGFGRGRFQSWKRGRGGGNFSGRWRERENRVDLNEASGKHASAQASQPLLQQSTLDQFIPYKGWKLYFSEVYSNNSPFIEKIQAFEKFFTRHIDLYDKDEIERKGSILVDFKELTKADEITNLIPDIENALRDAPEKTLACMGLAIHQVLTKDLERHAAELQAQEGLSNGGETMVNVPHIYARVYNYEPLTHLKNIRATCYGKYISIRGTVVRVSNIKPLCTNMAFQCAACGEIQSFPLPDGKYTLPTKCPVPACRGRSFAPLRSSPLTVTLDWQLIKIQELMSDAQREAGRIPRTIECELVHDLVDSCVPGDTVTVTGIVKVSNSEEGSRNKNDKCMFLLYIEANSVSNSKGPKAQTAEDGCKHGTLMEFSLKDLYAIREIQAEENLLKLVVNSLCPVIFGHELVKAGLTLALFGGSQKYADDKNRIPIRGDPHVLIVGDPGLGKSQMLQAACNVAPRGVYVCGNTTTSSGLTVTLSKDSSSGDFALEAGALVLGDQGICGIDEFDKMGNQHQALLEAMEQQSISLAKAGVVCSLPARTSIVAAANPVGGHYNKARTVSENLKMGSALLSRFDLVFILLDTPNEQHDHLLSEHVIAIRAGKQKAVSSATVTRVLSQDSNTSVLEVVSEKPLSERLKVAPGEQTDPIPHQLLRKYIGYARQYVHPRLSTDAAQALQDFYLELRKQSQRVGSSPITTRQLESLIRLTEARARLELREEATREDAEDIIEIMKHSMLGTYSDEFGNLDFERSQHGSGMSNRSTAKRFISALNSIAERTYNNIFQYHQLRQIAKELNIQVADFENFIGSLNDQGYLLKKGPKIYQLQTM
notes: Endogenous protein in mouse testes extracts and MEF cell extracts
binds: [1] | [2] | [3] | [4]
